According to publication doi:10.1101/2022.01.01.474694:
No constants are given. Whether binding was seen depends on the method and setting. Binding seen in cells or lysates may run through a third protein. Some results given as binding are weak or reduced against the parent protein; the word gives no strength.

Sequences of proteins named here, by UniProt entry; tags and fusion partners are left off.
UniProt P02730: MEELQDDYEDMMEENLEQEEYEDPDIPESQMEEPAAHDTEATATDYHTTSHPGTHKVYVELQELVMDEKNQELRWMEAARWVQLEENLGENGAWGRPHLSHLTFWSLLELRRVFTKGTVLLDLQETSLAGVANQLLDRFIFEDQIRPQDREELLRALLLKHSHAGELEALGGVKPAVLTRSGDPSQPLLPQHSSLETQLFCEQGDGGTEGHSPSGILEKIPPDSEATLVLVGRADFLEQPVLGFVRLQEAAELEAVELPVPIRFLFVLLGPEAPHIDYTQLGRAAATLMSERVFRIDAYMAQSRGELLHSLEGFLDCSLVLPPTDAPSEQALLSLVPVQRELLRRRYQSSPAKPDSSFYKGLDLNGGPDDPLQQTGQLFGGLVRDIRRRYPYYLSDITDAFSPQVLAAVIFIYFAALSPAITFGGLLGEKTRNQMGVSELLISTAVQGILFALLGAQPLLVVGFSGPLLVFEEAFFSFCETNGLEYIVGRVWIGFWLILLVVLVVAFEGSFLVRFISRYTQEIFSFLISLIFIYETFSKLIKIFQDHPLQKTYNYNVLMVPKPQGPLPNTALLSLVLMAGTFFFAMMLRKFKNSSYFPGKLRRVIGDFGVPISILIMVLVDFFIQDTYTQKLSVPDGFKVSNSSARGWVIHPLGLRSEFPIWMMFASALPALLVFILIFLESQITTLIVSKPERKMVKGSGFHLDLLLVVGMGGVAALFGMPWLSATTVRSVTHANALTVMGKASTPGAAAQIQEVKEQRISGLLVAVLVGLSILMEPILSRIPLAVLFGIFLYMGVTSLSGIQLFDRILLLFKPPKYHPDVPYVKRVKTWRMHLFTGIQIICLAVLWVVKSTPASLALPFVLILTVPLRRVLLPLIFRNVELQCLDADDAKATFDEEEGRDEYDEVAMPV

Target: Band 3 (RBC integral membrane protein) (human (endogenous in RBCs)) (UniProt P02730)
Assay: proximity ligation

B1: toll-like receptor 7 (TLR7) (receptor, UniProt Q9NYK1 27-1049)
chain: ARWFPKTLPCDVTLDVPKNHVIVDCTDKHLTEIPGGIPTNTTNLTLTINHIPDISPASFHRLDHLVEIDFRCNCVPIPLGSKNNMCIKRLQIKPRSFSGLTYLKSLYLDGNQLLEIPQGLPPSLQLLSLEANNIFSIRKENLTELANIEILYLGQNCYYRNPCYVSYSIEKDAFLNLTKLKVLSLKDNNVTAVPTVLPSTLTELYLYNNMIAKIQEDDFNNLNQLQILDLSGNCPRCYNAPFPCAPCKNNSPLQIPVNAFDALTELKVLRLHSNSLQHVPPRWFKNINKLQELDLSQNFLAKEIGDAKFLHFLPSLIQLDLSFNFELQVYRASMNLSQAFSSLKSLKILRIRGYVFKELKSFNLSPLHNLQNLEVLDLGTNFIKIANLSMFKQFKRLKVIDLSVNKISPSGDSSEVGFCSNARTSVESYEPQVLEQLHYFRYDKYARSCRFKNKEASFMSVNESCYKYGQTLDLSKNSIFFVKSSDFQHLSFLKCLNLSGNLISQTLNGSEFQPLAELRYLDFSNNRLDLLHSTAFEELHKLEVLDISSNSHYFQSEGITHMLNFTKNLKVLQKLMMNDNDISSSTSRTMESESLRTLEFRGNHLDVLWREGDNRYLQLFKNLLKLEELDISKNSLSFLPSGVFDGMPPNLKNLSLAKNGLKSFSWKKLQCLKNLETLDLSHNQLTTVPERLSNCSRSLKNLILKNNQIRSLTKYFLQDAFQLRYLDLSSNKIQMIQKTSFPENVLNNLKMLLLHHNRFLCTCDAVWFVWWVNHTEVTIPYLATDVTCVGPGAHKGQSVISLDLYTCELDLTNLILFSLSISVSLFLMVMMTASHLYFWDVWYIYHFCKAKIKGYQRLISPDCCYDAFIVYDTKDPAVTEWVLAELVAKLEDPREKHFNLCLEERDWLPGQPVLENLSQSIQLSKKTVFVMTDKYAKTENFKIAFYLSHQRLMDEKVDVIILIFLEKPFQKSKFLQLRKRLCGSSVLEWPTNPQAHPYFWQCLKNALATDNHVAYSQVFKETV
- binding: binds
